The record followed here is article doi:10.1101/2023.01.12.523872.

Test [1] deals with T1, Scs2-GFP-TM (S. pombe) (UniProt O60119).
T1 sequence: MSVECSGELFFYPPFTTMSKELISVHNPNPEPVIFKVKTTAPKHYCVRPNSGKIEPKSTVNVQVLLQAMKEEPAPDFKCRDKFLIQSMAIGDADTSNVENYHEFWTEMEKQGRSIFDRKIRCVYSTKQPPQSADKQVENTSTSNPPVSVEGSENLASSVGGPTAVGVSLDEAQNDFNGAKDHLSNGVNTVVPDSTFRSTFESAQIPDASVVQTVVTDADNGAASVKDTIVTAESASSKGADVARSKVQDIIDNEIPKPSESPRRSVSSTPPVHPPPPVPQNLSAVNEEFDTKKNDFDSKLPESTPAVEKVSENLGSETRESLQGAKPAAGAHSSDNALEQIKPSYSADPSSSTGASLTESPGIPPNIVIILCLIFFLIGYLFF
Description: affinity purification with mass spectrometry.

The target in test [2] is T1, Scs2-GFP-TM (S. pombe). Description: affinity purification with mass spectrometry. The source holds these as a separate data set.

Like-named read-outs stand apart in the source and are kept apart here. No constants are given. Whether binding was seen depends on the method and setting. Binding seen in cells or lysates may run through a third protein. These calls come from enrichment with a bait or labelling near it, and not all partners need be listed. Sequences can lack the tags named with a protein.

Consider “Csr102 (endogenous) (S. pombe (endogenous in S. pombe cells))”, for which the binding result with Scs2-GFP-TM (S. pombe) [1] is “binds”.

In the case of “Pdr16 (endogenous) (S. pombe (endogenous in S. pombe cells))”, the binding result with Scs2-GFP-TM (S. pombe) [1] is listed as “binds”.

B1: Myo1 (endogenous) (protein, UniProt Q9Y7Z8 1-1217)
chain: MAILKRTNRAKAATAAAPNSTGKSNGIKKAVYTSTRKKTVGVDDLTLLSKITDEEINKNLELRFRNGEIYTYIGHVLISVNPFRDLGIYTMDILKSYQGKNRLETSPHVYAIAENAYYQMKSYHENQCIIISGESGAGKTEAAKRIMQYITHVSKSVGTEIERVSEIILATNPLLESFGCAKTLRNNNSSRHGKYLEMIFNSGGVPVGAKITNYLLEKNRIVNQVRNERNFHIFYQFTKSAPQKYRDTYGIQGPENYVYTSACQCLSVDGISDEKDFQGTMNAMKVIGITEPEQDEIFRMLSIILWLGNIQFQEGQDGGSVISDKSITEFLGYLIGVPVAAIERALTIRIMQTQHGARRGSVYEVPLNPTQALAVRDALSMAIYNCLFDWIVERVNKALVTSDNSVSNSIGILDIYGFEIFENNSFEQLCINYVNEKLQQIFIELTLKTEQEEYVREQIAWTPIKYFNNKVVCDLIESKRPPGLFAAMNDAIATAHADSAAADSAFAQRLNFLSSNPHFEQRQNQFIVKHYAGDVTYSITGMTDKNKDQLATDILNLIHSSNNEFMKSIFPVAEESNSRRRPPTAGDRIKTSANDLVETLMKCQPSYIRTIKPNQTKSPNDYDQQMVLHQIKYLGLQENIRIRRAGFAYRQAFDTFAQRFAVLSGKTSYAGEYTWQGDDKSACEQILKDTNIPSSEYQMGTSKVFIKNPETLFALEDMRDKFWDTMATRIQRAWRSYVRRRSEAAACIQKLWNRNKVNMELERVRNEGTKLLQGKKQRRRYSILGSRKFYGDYLSASKPNGTLWNTCGLSQNDHVIFSMRCEVLVHKLGRTSKPSPRQLVLTKKNLYLVITKIVDQKLTQQVEKKFAVSSIDSVGLTNLQDDWVAIRNKSSQNGDMFLRCFFKTEFITTLKRINRNIQVIVGPTIQYCRKPGKVQTVKTAKDETTKDYDYYKSGTIHVGTGLPPTSKSKPFPRLATGGSTAAARGPRPVVQNKPAATKPVSMPAAKSKPAPMANPVSTAQQTQNRPPAPAMQARPNTTQAAAPVTSTTTTIKQATTVSASKPAPSTVTSAASSPSNISKPSAPVANNVSKPSAVPPPPPPPPAEVEKKDLYLALYDFAGRSPNEMTIKKDEIIEIVQKEPSGWWLALKNGAEGWVPATYVTEYKGSTPQTTASSTNVAAQANNNASPAEVNNLAGSLADALRMRASAVRGSDEEEDW
With B1, the binding result with Scs2-GFP-TM (S. pombe) [2] was “binds”.

B2: Pil1 (endogenous) (protein, UniProt O74960 1-351)
chain: MMNRAYSLRNSRAPTASQLLNPPPPSSSTRSGRLFAPLSHTMRINHAATFTPDLAKRLAVLVKMEKNVMRSMEVTIRGRRDCARQLSYWGEDCDDDISDVTDKLGVLFYEMAELENYLIDRYDQYRMTLKSIRNIESSVQPSREKKQKLLDQIYALKHKDPESPRLVTMEQELVREEAACLVAEAQLSNTTREKFKQAMTFNLDALHEHAEKLNLIATYGRHLLNLIDDTPVTPGEARPAYDGYETSRQIVMDAEHALSSWVPSQPAVNFVKPQIEDDAQSDARSWNEYEAQGEPVPVEQVTHLQDDVQSDTSEIIENEPGMHPHVHAERMSRIASESSDAVPQQTAVQVA
As to B2, the binding entry with Scs2-GFP-TM (S. pombe) [2] is “binds”.
